{
  "source": "patent US20130171073A1",
  "about": "(CEDARS-SINAI MEDICAL CENTER, priority 2010, published 2013)",
  "tested_on": "pituitary POMC-GFP positive cells (corticotrophs)",
  "assay": "Glucocorticoid negative feedback: pituitary eGFP expression in live zebrafish larvae exposed to dexamethasone",
  "assay_type": "in vivo",
  "note": "At least one structure is not confirmed: it was looked up by name or label, or the drawing left a doubt.",
  "data": [
    {"molecule": "C[C@@H]1C[C@H]2[C@@H]3CCC4=CC(=O)C=C[C@]4(C)[C@@]3(F)[C@@H](O)C[C@]2(C)[C@@]1(O)C(=O)CO", "note": "[dexamethasone]", "values": [
      {"measurement": "pituitary eGFP expression", "setting": "POMC-GFP larvae, 10^−7 M, from 10 hpf, by 4 dpf", "result": "suppressed"},
      {"measurement": "pituitary eGFP expression", "setting": "double transgenic (Tg:Pomc-Pttg; POMC-eGFP) larvae, 10^−6 M", "result": "inhibition"},
      {"measurement": "pituitary eGFP expression", "setting": "double transgenic (Tg:Pomc-Pttg; POMC-eGFP) larvae, 10^−7 M, by 4 dpf", "result": "but not"}
    ]}
  ]
}
